These are yes or no findings as the source states them, for the method shown. In cells and extracts the contact can be indirect. Here binding means that the protein was enriched with, or labelled near, the bait; the list need not be complete. Sequences can lack the tags named with a protein.

Protein sequences, listed by entry. Tags and fused reporters are not part of them.
UniProt P27986: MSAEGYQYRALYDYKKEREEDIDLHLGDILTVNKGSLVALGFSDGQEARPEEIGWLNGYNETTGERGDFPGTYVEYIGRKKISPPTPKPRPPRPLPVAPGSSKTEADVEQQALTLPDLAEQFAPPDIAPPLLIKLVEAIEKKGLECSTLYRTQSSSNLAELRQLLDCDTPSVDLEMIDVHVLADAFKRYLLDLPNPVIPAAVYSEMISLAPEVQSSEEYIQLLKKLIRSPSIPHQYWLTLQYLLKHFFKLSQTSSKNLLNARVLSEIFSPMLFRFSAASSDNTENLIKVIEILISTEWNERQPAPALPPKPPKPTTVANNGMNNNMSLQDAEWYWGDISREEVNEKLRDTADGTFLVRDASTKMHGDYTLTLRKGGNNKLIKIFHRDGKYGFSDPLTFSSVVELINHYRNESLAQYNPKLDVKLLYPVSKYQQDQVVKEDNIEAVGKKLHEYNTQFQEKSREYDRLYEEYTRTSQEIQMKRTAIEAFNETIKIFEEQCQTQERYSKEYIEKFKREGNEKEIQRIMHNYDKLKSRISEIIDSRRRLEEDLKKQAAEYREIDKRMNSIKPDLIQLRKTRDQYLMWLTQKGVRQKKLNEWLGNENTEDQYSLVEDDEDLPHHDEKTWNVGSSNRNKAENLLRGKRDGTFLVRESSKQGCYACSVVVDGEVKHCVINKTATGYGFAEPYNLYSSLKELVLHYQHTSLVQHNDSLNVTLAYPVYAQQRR
UniProt Q15717: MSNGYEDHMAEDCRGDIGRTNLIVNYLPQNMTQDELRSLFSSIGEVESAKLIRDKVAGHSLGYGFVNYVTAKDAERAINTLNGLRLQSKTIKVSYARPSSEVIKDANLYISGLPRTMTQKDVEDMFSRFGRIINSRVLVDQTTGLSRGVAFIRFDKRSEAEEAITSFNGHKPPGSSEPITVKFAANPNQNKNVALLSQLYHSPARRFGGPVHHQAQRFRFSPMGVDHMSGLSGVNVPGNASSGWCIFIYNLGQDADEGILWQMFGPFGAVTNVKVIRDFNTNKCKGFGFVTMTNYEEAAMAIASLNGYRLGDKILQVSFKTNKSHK
UniProt Q92841: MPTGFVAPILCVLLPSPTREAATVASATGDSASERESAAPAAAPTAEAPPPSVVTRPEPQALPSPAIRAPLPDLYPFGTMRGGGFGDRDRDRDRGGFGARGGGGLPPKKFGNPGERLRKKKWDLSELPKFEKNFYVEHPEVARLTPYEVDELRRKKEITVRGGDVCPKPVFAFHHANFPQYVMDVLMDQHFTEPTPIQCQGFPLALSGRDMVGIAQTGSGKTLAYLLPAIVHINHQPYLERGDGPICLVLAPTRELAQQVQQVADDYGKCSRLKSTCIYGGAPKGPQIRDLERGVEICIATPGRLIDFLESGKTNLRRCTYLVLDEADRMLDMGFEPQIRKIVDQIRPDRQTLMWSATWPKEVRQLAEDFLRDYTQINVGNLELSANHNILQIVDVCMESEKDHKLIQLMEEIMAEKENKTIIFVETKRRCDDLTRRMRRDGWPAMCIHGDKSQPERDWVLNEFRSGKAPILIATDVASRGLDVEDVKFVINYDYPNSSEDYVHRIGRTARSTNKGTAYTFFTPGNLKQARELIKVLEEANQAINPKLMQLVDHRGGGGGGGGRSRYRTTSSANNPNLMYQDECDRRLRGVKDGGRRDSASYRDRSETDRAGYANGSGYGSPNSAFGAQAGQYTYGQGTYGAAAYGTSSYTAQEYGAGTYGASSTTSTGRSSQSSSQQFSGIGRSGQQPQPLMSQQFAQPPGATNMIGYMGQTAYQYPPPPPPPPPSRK
UniProt Q659C4: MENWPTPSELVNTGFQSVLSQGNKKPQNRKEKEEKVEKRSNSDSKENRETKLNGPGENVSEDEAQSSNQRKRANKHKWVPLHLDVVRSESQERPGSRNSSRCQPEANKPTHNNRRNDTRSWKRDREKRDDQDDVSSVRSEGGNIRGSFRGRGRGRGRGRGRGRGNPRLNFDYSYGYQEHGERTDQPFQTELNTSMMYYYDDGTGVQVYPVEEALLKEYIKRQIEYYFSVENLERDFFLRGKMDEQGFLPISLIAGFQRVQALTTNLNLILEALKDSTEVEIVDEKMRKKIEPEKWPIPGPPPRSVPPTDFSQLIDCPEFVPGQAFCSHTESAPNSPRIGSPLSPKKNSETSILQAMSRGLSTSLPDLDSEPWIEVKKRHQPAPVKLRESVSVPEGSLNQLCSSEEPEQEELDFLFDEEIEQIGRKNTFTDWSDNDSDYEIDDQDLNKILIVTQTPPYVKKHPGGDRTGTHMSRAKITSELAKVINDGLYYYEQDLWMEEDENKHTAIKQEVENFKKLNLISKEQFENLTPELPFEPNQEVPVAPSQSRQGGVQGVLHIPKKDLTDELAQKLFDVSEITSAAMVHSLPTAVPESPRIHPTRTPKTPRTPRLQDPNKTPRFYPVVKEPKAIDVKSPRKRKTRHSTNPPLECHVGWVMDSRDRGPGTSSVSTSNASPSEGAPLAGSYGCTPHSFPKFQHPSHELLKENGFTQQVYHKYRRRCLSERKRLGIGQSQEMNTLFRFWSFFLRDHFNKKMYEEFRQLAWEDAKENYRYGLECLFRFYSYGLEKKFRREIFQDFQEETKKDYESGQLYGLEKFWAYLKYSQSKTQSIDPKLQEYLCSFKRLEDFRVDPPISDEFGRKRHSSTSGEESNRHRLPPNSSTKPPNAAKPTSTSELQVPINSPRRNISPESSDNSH
UniProt Q9HAU5: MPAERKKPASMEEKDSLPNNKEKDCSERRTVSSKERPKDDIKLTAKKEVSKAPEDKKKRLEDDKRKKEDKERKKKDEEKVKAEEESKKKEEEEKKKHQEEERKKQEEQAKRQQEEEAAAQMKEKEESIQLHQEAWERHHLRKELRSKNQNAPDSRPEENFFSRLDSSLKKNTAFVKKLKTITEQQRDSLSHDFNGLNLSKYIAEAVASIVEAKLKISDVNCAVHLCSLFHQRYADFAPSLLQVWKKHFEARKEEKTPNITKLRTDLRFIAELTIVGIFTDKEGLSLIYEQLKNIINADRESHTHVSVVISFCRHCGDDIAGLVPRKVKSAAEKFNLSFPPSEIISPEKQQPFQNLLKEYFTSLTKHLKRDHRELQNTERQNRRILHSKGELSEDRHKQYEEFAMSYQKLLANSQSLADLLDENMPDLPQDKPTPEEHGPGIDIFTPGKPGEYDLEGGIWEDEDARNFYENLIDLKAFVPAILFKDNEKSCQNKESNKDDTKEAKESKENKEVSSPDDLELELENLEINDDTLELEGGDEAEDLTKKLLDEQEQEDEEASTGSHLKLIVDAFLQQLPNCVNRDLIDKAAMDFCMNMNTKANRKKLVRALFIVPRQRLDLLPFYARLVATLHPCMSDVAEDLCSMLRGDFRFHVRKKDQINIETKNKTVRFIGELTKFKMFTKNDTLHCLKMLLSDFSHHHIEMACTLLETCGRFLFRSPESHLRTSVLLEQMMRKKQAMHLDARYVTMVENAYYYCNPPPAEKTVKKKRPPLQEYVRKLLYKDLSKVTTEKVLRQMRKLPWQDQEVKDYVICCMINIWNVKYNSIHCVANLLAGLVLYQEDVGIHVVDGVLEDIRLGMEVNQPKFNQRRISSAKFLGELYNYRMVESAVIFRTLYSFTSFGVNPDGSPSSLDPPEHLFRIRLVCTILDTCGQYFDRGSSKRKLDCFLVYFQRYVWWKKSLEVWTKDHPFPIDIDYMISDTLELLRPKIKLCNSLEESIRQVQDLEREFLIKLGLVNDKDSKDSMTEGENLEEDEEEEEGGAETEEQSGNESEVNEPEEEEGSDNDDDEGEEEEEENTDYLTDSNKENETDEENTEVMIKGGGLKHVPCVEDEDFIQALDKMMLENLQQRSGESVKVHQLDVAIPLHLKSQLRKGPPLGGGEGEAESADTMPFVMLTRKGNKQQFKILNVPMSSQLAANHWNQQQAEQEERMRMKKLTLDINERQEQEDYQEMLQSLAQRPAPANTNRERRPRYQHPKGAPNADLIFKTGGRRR
UniProt O00459: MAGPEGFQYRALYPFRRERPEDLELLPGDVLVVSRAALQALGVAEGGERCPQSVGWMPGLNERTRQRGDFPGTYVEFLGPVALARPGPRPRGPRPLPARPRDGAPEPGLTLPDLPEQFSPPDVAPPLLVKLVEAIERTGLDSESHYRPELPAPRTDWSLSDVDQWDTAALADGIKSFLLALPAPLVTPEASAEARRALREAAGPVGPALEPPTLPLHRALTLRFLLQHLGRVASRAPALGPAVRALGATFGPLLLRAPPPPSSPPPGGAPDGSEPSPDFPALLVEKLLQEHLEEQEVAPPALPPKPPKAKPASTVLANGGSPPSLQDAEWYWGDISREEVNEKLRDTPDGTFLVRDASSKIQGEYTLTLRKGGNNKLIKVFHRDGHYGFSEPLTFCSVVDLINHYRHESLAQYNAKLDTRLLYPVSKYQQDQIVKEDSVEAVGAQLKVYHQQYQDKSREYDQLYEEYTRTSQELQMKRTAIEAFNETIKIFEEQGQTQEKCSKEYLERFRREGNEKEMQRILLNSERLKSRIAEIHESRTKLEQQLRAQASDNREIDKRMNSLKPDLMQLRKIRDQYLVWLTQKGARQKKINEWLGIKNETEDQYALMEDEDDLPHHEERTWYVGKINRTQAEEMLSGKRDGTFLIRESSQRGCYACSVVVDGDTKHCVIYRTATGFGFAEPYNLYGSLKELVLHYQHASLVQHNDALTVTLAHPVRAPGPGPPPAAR
UniProt P00519: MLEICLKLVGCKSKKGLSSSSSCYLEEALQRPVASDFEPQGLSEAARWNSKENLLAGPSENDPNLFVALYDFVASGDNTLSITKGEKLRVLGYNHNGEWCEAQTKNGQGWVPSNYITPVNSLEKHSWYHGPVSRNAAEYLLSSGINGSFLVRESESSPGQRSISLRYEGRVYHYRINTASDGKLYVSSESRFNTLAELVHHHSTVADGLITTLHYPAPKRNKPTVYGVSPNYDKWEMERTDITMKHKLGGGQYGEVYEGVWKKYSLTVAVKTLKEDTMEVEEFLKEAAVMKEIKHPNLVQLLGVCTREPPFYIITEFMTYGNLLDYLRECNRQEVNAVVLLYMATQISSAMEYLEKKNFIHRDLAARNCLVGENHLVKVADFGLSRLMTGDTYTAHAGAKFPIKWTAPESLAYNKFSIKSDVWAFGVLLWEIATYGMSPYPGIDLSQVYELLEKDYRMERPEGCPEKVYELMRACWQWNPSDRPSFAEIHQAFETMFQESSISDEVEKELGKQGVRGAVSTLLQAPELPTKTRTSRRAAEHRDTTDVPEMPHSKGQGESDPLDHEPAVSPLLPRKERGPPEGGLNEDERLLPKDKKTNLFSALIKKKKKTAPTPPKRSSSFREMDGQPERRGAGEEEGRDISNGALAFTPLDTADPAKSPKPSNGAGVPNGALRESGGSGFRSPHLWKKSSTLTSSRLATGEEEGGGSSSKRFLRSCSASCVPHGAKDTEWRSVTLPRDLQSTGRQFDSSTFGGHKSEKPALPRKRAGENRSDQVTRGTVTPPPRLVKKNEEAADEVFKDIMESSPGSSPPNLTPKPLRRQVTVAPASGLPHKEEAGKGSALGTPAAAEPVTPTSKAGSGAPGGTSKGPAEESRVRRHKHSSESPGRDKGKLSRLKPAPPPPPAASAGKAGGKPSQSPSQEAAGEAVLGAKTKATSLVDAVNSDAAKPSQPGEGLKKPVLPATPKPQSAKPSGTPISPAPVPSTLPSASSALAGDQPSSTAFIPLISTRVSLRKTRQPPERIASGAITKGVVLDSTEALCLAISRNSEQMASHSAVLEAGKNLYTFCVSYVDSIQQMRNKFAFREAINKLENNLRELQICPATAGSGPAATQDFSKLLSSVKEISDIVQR
UniProt O00425: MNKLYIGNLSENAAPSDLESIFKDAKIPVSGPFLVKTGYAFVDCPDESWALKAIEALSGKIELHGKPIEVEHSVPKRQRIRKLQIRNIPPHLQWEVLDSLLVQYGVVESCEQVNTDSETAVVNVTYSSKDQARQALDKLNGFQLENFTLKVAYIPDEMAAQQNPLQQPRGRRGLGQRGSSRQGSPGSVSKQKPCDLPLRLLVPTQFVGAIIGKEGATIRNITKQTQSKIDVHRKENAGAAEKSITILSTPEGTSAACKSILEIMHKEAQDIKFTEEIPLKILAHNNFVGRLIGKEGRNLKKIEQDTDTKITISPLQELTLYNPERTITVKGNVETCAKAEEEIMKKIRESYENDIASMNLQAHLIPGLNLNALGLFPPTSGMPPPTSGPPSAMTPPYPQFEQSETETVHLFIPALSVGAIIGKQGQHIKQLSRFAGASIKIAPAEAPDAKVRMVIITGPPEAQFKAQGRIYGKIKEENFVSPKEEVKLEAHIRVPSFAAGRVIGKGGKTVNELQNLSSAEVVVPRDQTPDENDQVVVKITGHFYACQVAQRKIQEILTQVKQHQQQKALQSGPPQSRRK

Eight substances from publication PMC4006922, “The Human Adenovirus E4-ORF1 Protein Subverts Discs Large 1 to Mediate Membrane Recruitment and Dysregulation of Phosphatidylinositol 3-Kinase” (PLoS Pathogens, 2014) can be followed below.

In this experiment the target is T1, GST-Ad9 E4-ORF1 fusion protein (human adenovirus type 9 (Ad9)) (UniProt P89079).
T1 sequence: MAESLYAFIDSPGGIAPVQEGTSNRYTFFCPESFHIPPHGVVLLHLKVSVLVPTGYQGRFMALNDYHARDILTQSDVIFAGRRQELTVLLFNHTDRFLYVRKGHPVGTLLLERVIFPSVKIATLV
Description: affinity purification with mass spectrometry; GST-E4-ORF1 pulldown from extracts of suspension-cultured HeLa cells; recovered proteins resolved by SDS-PAGE, gel sections digested with trypsin, MALDI-TOF mass spectrometry; only the target purified.

With “PI3K regulatory subunit p85α (endogenous) (from UniProt P27986 1-724)”, the binding entry is “binds”.

On to ELAV1 (from UniProt Q15717 1-326), for which the binding entry is “binds”.

Turning to DDX17 (from UniProt Q92841 1-729), the binding result is “binds”.

For the substance LARP2 (from UniProt Q659C4 1-914), the binding result was “binds”.

Regarding UPF2 (from UniProt Q9HAU5 1-1272), the binding entry is given as “binds”.

As to “PI3K regulatory subunit p85β (endogenous) (from UniProt O00459 1-728)”, the binding result was “binds”.

On to Abl1 (from UniProt P00519 1-1130), for which the binding entry is “binds”.

Regarding IGF2BP3 (from UniProt O00425 1-579), the binding result is reported as “binds”.
